Results are given in words; binding and its absence hold for the method and conditions named. In cells and extracts the contact can be indirect. Some binding calls cover weakened binding; strength is not graded here. For part of these data: Sequences can lack the tags named with a protein.
Legend:
[1] = biological target: T1, HA-TECPR2 WT (UniProt O15040); experiment: co-IP; lysates of empty and HA-TECPR2 WT or L440Rfs expressing TECPR2 MUT 293T cells; MCL-buffer; HA-IP on HA agarose; immunoblotting
T1 sequence: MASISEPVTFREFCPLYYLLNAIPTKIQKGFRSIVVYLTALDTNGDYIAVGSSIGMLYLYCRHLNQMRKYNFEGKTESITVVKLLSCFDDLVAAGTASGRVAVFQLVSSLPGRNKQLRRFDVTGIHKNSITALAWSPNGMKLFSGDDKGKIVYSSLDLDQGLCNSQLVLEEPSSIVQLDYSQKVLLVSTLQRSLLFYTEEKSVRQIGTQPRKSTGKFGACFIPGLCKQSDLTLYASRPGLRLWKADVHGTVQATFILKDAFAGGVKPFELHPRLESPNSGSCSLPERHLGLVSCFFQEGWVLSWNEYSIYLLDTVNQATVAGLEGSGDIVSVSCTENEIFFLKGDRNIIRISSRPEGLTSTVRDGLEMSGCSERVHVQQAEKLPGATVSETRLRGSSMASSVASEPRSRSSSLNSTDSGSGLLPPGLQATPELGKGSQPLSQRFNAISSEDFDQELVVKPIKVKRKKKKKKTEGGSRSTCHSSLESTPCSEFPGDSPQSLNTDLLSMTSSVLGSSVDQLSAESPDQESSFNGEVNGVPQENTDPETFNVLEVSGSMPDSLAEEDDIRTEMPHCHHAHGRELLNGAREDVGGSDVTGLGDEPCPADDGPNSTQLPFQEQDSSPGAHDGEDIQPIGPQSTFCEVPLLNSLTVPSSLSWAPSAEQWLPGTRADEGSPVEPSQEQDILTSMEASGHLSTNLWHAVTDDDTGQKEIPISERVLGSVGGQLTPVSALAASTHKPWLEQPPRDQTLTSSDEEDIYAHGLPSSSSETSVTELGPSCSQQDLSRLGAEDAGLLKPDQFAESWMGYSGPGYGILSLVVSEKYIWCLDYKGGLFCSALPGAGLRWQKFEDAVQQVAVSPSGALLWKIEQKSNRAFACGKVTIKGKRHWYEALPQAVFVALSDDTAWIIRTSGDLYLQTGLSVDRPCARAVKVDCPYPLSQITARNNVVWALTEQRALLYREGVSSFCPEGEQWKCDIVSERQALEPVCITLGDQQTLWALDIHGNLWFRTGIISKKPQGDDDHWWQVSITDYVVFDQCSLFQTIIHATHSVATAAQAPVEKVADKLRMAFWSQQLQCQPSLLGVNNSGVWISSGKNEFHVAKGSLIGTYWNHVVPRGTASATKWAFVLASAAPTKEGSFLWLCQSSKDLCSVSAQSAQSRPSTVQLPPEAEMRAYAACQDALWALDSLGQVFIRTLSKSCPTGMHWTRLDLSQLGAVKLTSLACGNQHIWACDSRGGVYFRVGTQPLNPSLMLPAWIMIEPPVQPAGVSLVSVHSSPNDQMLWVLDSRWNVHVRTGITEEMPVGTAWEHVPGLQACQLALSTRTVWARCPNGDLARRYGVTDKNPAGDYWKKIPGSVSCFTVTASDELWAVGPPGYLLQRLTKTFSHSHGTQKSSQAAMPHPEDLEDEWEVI

The chains behind the UniProt entries cited, without tags or fusion partners.
UniProt O95292: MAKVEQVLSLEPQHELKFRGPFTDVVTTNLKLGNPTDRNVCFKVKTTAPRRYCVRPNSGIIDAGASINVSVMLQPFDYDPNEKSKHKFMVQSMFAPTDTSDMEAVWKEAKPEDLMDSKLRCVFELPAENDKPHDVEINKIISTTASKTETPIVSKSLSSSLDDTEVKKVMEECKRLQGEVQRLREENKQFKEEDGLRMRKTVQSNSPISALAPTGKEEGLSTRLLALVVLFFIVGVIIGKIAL
UniProt Q15436: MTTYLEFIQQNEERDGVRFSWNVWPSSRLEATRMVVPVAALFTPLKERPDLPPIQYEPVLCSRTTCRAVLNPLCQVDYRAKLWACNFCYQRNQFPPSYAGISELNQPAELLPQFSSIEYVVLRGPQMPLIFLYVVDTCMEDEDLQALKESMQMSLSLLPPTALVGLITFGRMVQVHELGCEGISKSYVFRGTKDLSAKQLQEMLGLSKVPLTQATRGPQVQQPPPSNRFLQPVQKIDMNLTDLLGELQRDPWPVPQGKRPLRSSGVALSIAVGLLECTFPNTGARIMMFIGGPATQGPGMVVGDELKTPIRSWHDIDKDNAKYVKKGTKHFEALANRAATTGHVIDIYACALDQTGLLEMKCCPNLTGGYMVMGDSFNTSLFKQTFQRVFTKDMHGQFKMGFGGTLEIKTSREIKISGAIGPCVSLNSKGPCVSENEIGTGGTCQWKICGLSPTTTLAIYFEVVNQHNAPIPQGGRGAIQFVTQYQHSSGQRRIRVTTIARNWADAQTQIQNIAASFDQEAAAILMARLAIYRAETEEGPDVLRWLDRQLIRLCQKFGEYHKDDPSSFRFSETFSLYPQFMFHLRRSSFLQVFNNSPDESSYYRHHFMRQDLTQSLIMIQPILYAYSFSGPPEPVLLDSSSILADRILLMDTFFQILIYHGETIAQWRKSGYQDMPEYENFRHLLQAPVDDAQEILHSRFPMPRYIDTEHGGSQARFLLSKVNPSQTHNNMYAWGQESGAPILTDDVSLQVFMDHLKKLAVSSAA
UniProt P60520: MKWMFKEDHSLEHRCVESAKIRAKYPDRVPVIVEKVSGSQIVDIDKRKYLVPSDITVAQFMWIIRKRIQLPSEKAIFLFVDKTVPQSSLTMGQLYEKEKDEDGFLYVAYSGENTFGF
UniProt Q9Y2L5: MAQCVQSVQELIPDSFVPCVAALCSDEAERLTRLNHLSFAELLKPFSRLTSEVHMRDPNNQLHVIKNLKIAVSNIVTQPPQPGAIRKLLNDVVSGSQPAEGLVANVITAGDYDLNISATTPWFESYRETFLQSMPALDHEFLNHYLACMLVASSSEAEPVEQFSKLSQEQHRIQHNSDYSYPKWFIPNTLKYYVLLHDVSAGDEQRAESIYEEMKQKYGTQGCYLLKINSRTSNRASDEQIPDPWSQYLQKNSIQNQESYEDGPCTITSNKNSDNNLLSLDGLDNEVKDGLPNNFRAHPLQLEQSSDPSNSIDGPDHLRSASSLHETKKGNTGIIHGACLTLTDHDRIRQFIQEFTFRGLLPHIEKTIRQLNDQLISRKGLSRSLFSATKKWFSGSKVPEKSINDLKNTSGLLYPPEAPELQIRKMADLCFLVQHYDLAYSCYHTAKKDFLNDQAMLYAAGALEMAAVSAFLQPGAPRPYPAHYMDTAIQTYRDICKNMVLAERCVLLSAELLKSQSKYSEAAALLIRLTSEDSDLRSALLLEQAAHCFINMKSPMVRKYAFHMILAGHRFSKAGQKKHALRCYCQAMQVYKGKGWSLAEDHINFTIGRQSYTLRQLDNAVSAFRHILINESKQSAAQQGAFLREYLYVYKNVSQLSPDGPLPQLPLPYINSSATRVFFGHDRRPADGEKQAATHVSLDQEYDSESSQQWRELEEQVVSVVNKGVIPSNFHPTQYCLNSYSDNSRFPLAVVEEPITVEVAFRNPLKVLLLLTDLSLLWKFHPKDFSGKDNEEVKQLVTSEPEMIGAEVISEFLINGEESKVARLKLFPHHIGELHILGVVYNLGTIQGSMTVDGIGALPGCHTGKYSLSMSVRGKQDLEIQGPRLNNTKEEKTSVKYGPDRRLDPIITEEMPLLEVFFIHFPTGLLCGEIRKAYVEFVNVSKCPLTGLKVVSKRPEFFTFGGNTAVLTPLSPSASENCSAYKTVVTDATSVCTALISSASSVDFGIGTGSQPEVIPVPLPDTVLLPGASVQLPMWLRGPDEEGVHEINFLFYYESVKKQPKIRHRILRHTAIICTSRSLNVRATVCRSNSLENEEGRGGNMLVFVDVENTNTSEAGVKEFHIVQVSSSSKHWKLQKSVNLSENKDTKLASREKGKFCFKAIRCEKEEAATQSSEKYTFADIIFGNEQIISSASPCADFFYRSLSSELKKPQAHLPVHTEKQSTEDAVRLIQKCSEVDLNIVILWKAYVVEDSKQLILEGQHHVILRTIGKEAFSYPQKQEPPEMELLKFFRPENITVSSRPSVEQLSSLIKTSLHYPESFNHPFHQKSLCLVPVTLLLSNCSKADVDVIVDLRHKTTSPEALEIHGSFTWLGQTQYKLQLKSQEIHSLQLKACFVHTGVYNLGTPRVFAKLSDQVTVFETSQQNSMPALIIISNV
UniProt O95166: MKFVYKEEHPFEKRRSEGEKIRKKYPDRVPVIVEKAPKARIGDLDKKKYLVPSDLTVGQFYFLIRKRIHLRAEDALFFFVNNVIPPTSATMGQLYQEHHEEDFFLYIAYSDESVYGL
UniProt Q9Y296: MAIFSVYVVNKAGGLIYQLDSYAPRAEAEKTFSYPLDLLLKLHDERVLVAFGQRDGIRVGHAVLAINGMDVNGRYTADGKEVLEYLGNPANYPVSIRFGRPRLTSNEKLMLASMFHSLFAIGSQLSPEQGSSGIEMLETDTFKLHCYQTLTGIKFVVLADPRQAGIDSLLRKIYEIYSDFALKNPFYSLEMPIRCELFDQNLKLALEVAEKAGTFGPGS
UniProt Q96Q05: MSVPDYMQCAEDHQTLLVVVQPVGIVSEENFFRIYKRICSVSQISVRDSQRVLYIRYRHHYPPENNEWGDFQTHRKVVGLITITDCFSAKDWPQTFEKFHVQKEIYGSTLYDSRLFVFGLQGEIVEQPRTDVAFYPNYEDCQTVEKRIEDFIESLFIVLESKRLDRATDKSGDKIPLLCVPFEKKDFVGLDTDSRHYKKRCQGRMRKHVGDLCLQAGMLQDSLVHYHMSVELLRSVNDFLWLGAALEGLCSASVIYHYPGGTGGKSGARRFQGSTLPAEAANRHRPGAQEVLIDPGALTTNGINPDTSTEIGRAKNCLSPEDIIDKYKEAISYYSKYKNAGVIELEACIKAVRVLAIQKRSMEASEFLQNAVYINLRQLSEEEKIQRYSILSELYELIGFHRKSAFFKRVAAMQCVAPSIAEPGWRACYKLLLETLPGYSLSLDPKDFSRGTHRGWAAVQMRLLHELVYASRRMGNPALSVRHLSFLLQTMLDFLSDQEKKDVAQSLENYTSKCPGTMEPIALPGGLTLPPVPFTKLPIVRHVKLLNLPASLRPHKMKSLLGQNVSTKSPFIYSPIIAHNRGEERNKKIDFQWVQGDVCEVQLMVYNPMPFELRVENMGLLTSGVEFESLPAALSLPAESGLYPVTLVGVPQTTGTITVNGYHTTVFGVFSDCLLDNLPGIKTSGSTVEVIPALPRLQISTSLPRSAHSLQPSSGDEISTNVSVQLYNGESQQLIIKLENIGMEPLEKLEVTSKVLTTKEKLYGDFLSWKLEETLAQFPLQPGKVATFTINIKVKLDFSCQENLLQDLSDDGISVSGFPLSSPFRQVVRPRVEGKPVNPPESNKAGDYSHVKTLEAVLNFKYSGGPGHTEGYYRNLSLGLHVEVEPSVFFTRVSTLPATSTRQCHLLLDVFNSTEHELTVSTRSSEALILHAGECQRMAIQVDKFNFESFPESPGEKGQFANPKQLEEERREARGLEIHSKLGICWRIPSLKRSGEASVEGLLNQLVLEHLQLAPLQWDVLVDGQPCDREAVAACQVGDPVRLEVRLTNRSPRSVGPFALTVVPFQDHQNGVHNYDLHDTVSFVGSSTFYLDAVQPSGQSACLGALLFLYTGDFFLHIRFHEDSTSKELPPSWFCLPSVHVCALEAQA
UniProt Q7Z392: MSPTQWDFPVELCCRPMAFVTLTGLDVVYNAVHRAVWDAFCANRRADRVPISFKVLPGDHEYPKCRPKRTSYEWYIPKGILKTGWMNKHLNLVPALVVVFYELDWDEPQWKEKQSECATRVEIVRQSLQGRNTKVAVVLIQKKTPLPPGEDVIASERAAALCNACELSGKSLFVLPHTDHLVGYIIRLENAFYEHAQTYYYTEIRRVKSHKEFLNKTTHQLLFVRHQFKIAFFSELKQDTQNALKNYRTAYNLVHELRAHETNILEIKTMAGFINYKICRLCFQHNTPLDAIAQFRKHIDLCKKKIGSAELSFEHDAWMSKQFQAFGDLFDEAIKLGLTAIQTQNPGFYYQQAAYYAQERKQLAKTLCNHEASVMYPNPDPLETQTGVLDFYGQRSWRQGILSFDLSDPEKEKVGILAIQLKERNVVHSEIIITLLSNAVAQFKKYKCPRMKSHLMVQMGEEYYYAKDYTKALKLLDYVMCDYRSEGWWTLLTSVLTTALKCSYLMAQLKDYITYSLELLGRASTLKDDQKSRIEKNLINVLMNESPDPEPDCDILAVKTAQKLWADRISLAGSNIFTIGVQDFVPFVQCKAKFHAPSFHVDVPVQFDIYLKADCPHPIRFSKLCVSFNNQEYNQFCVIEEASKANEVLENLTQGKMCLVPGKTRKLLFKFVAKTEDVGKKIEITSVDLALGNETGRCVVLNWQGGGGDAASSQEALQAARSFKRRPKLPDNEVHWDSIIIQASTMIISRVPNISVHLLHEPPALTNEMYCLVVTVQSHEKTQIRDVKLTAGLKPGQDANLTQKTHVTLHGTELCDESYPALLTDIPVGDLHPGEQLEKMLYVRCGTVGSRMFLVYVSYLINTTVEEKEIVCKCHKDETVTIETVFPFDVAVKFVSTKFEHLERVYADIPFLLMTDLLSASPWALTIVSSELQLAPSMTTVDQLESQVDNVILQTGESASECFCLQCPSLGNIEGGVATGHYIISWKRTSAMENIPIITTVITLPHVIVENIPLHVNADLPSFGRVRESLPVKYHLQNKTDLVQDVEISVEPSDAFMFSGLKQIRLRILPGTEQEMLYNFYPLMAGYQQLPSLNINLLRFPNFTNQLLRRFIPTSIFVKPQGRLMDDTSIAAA
UniProt P60468: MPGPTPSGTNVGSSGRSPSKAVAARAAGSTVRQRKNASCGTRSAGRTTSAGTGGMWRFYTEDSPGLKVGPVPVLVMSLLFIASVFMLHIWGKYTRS

[2] = biological target: T2, endogenous full-length TECPR2 (human (endogenous in 293T)) (UniProt O15040); experiment: co-IP; endogenous TECPR2 precipitated with anti-TECPR2 antibody and protein-G sepharose from TECPR2 WT and MUT 293T cell lysates (MCL-buffer); immunoblotting
T2 sequence: T1 sequence

Substance	binding [1]	binding [2]
VAPB (from UniProt O95292 1-243)	binds	binds
SEC23A (from UniProt Q15436 1-765)	binds	binds
GABARAPL2 (from UniProt P60520 1-117)	binds	binds
TRAPPC8 (from UniProt Q9Y2L5 1-1435)	binds	binds
GABARAP (from UniProt O95166 1-117)	binds	binds
TRAPPC4 (from UniProt Q9Y296 1-219)	binds	binds
TRAPPC9 (from UniProt Q96Q05 1-1148)	binds	binds
TRAPPC11 (from UniProt Q7Z392 1-1133)	binds	binds
SEC61B (from UniProt P60468 1-96)	binds	binds

Source: publication PMC9935918
